# The list shows a part of the results. Shown are side measurements of this screen, not its main read-out; they come without a call. The list favours compounds with an active or inconclusive main result. The note in brackets gives the kind of curve behind each potency; many fits are weak.
# Assay: qHTS Assay for Lipid Storage Modulators in Drosophila S3 Cells;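 as to cell number change: cells counted by Cell Tracker Red CMTPX staining in the red channel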
# Conditions: BODIPY lipid droplet fluorescence, 18-24 h; for cell number change: measured here: cell count max response, cells fed with added oleic acid
# Summary of the method: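 Drosophila S3 cells loaded with oleic acid (400 uM, as added) and compounds at several concentrations; lipid droplets imaged by 488-nm laser-scanning cytometry, 500–530 nm intensity and object ratio to cell channel. Percent activity normalized to 20 uM Triacsin C.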
# [1] = measured here: lipid fluorescence (Fed channel) AC50, cells fed with added oleic acid
# [2] = measured here: cell number channel AC50, cells fed with added oleic acid
SMILES,AC50 [1],cell number change [%],AC50 [2]
CC(=O)Nc1ccc(S(=O)(=O)NCc2ccc(C(=O)N3CCOCC3)cc2)cc1,"0.116 µM [rising, single point]",–,–
Cc1ccc(-c2nn(C)c(=O)c3ccccc23)cc1CNS(C)(=O)=O,–,-10.9,–
O=C(NCCS(=O)(=O)N1CCN(c2ccc(F)cc2)CC1)c1ccc2c(c1)OCO2,–,–,"2.91 µM [rising, partial curve, poor fit]"
CC1=C(C#N)C(=O)NC(=O)/C1=C\c1ccc(-c2cc(C)c(C)cc2[N+](=O)[O-])o1,–,15.6,–
COc1ccc(C(=O)Cn2cnc3ccc(Cl)cc3c2=O)cc1F,–,15.3,–
COc1ccc(-n2nc3c(N4CCC(C(=O)N5CCC(C)CC5)CC4)nnc(C)c3c2C)cc1,"29.1 µM [falling, single point]",5.51,"1.64 µM [rising, partial curve, poor fit]"
CCOC(=O)c1snc(C(=O)NC2CCCCC2)c1N,–,-11.9,–
O=C(C1=C(O)C(=O)N(CCN2CCOCC2)C1c1ccc(F)cc1)c1cccs1 (stereo unspecified),"29.1 µM [falling, single point]",–,–
CC(C)c1ccc(NC(=O)C2CCCN(S(=O)(=O)c3cnc[nH]3)C2)cc1 (stereo unspecified),"2.31 µM [rising, single point]",12.8,–
O=C(NCc1ccccc1CN1CCCC1)C1CCN(S(=O)(=O)c2ccc(F)c(F)c2)CC1,"3.66 µM [falling, full curve]",-10.8,–
CC(=O)NCCN1C(=O)S/C(=C\c2cccs2)C1=O,–,-6,–
CCOc1ccc(N(CC(=O)NC2CCCC2)C(=O)c2ccc(C)s2)cc1,"0.231 µM [rising, partial curve, poor fit]",2.94,–
CCCCSc1nc(O)c(Cc2ccccc2)c(=O)[nH]1,"29.1 µM [rising, single point]",10.9,–
O=C(Cc1csc(Nc2nc(=S)[nH]c3ccccc23)n1)NCc1ccccc1Cl,"0.326 µM [falling, full curve, poor fit]",-8.62,–
C=CCn1cc(C(=O)OC)c(=O)c2cc(S(=O)(=O)N(CC)CC)ccc21,"3.66 µM [falling, partial curve]",-15.9,–
C=CCSc1ncc(-c2ccccc2)cn1,"6.51 µM [falling, single point]",1.96,"6.51 µM [falling, single point]"
CCNC(=S)NNC(=O)Cn1nc(C)cc1C,–,18.1,–
Cc1ccc2[nH]c(-c3ccccc3)c(CN3CCOCC3)c(=O)c2c1,"0.651 µM [falling, full curve]",-2.8,–
Cc1cc(C)c(CSc2ncc(-c3ccc([N+](=O)[O-])cc3)[nH]2)c(C)c1,"29.1 µM [falling, single point]",-30.5,"29.1 µM [falling, single point]"
Cc1nc(-c2cn[nH]c2)c2cc(C)oc2n1,–,-33.6,"23.1 µM [falling, partial curve, poor fit]"
CCc1cc(C(=O)c2ccc(OC)cc2)c(NC(=O)CN2CCCC2)s1,–,-5.57,–
CN(C)c1ccc(C(=S)Nc2ccccc2)cc1,–,31.7,"11.6 µM [rising, partial curve, poor fit]"

# Filtered by structure: those above with two or more sulfur atoms
SMILES,AC50 [1],cell number change [%],AC50 [2]
CC(=O)NCCN1C(=O)S/C(=C\c2cccs2)C1=O,–,-6,–
O=C(Cc1csc(Nc2nc(=S)[nH]c3ccccc23)n1)NCc1ccccc1Cl,"0.326 µM [falling, full curve, poor fit]",-8.62,–

# Continued:

SMILES,AC50 [1],cell number change [%],AC50 [2]
COCCN(CCOC)S(=O)(=O)c1ccc(C(=O)Nc2nc(C)c(C(C)=O)s2)cc1,–,-1.49,–
Cc1cc(C)c2cc(C(=O)N3CCC(N4CCCCC4)CC3)[nH]c2c1,"6.51 µM [rising, single point]",37.8,"18.4 µM [rising, partial curve, poor fit]"
COC(=O)[C@@H]1CCCN1Cc1c(C(=O)N2CCCCC2)nc2c(C)cccn12,–,14.3,–
CC(=O)C1=C(O)C(=O)N(c2cc(C(C)(C)C)on2)C1c1ccc(C(C)C)cc1 (stereo unspecified),"0.0326 µM [falling, full curve, poor fit]",-14.9,–
CC1CC(C)CN(C(=S)NC2CCCCC2)C1 (stereo unspecified),"16.4 µM [falling, partial curve, poor fit]",3.44,–
CCc1ccc(-c2cc(C)no2)cc1S(=O)(=O)NC(C)Cc1ccco1 (stereo unspecified),–,-20.9,–
O=C(Nc1ccccc1)C1CC(=O)N(C2CCCCC2)C1 (stereo unspecified),–,17.3,–
CC(C)Sc1nc(N2CCCC2)c2c(c1C#N)CC(C)(C)OC2,"6.51 µM [rising, single point]",-39.3,"29.1 µM [falling, single point]"
C/C=C(\C)CN1CCC(n2nccc2NC(=O)CCCc2ccccc2)CC1,"16.4 µM [rising, partial curve, poor fit]",-0.867,–
COc1ccc(CCNC(=S)N2CCC(C(N)=O)CC2)cc1,–,-20.1,–
Cc1cc(C(=O)OCC(=O)N2c3ccccc3CC2C)c(C)o1 (stereo unspecified),"23.1 µM [rising, single point]",64.1,"2.06 µM [rising, full curve]"
CC1(C)Cc2c(sc(/N=C/N3CCOCC3)c2C#N)C(C)(C)N1,–,-75.7,"29.1 µM [falling, single point]"
CCCC(=O)Nc1c2c(nn1-c1cccc(Cl)c1)CS(=O)(=O)C2,"18.4 µM [rising, single point]",-2.45,–
COc1ccc(CCNC(=O)c2cccs2)cc1OC,"0.092 µM [falling, full curve]",-22.6,–
Cc1ccc2cc3c(NC(=O)c4ccco4)nn(C)c3nc2c1,"8.2 µM [falling, partial curve]",-21.1,–
Clc1ccc(-c2nnnn2-c2ccc(Cl)c(Cl)c2)cc1Cl,"0.58 µM [rising, single point]",91.1,"4.61 µM [rising, full curve]"
COc1ccc(NC(=O)CN(C)C(=O)c2ccc3[nH]c4c(c3c2)CC(C)CC4)cc1 (stereo unspecified),–,–,"4.61 µM [rising, single point]"
Cc1ccc2c(c1)C(c1ccccc1)N(C(=O)c1ccc(Br)cc1)CC(=O)N2 (stereo unspecified),"0.13 µM [rising, full curve, poor fit]",-1.5,–
COCCC(=O)N(Cc1ccc2c(c1)OCO2)C(C(=O)NC1CCCCC1)c1ccncc1 (stereo unspecified),"7.31 µM [rising, partial curve]",18.8,–
COc1cc2[nH]c(=O)n(CCCC(=O)NC3CCCCC3)c(=O)c2cc1OC,"0.651 µM [rising, single point]",8.55,–
CCn1c(SCC(=O)N2CCCCC2)nc2c(c1=O)SC(C)C2 (stereo unspecified),"6.51 µM [rising, single point]",–,–
Cc1ccc(SCc2c(C(=O)N/N=C/c3cccnc3)nnn2-c2nonc2N)cc1,"4.11 µM [falling, single point]",-2.39,–

SMILES,AC50 [1],cell number change [%],AC50 [2]
O=C(COC(=O)c1cc(Br)ccc1Cl)NC1CCCC1,–,55.6,–
CSc1cccc(NC(=O)C2CCCN2S(=O)(=O)c2ccc(Br)s2)c1 (stereo unspecified),"29.1 µM [rising, single point]",44.2,"8.2 µM [rising, partial curve]"
CCN(CC)c1ccc(/C=c2\sc3nc4ccccc4n3c2=O)c(O)c1,"29.1 µM [falling, single point]",-6.37,–
COc1cc(N/N=C(\C)c2ccc(N)cc2)nc(-c2ccccc2)n1,–,11.9,"0.411 µM [falling, single point]"
O=C(O)c1cccc(S(=O)(=O)Nc2cccc(S(=O)(=O)N3CCCC3)c2)c1,–,-0.752,–
CCCn1nc(NC(=O)C2CCCO2)c2cc3cc(C)ccc3nc21 (stereo unspecified),"0.517 µM [rising, full curve]",1.44,"0.206 µM [rising, full curve]"
Cc1ccc2[nH]c(=O)c(CN(Cc3cccnc3)Cc3nnnn3CCN3CCOCC3)cc2c1,"5.8 µM [falling, single point]",–,"6.51 µM [rising, single point]"
Cn1c(SCc2cccc(Br)c2)nc2ccccc2c1=O,"29.1 µM [falling, single point]",-22.8,–
Cc1cccc(N(Cc2cc3ccc(C)cc3[nH]c2=O)S(=O)(=O)c2ccccc2)c1,"29.1 µM [rising, single point]",-5.34,–
Cc1cccc2nc(C(=O)Nc3cc(Cl)ccc3-n3cncn3)cn12,"32.6 µM [falling, single point]",-4.37,–
O=C(NC1CCCCC1)C(c1ccccc1F)N(C(=O)c1csnn1)C1CCCC1 (stereo unspecified),"0.206 µM [rising, single point]",-20,–
O=C(O)Cc1ccc(NC(=O)Nc2cccc(Cl)c2)cc1,–,6.49,–
CC(=O)Nc1cccc(C(=O)OCC(=O)NNC(=O)c2cccs2)c1,–,8.5,–
CCn1c(SCC(=O)Nc2nc3ccccc3s2)nnc1-c1ccc(OC)cc1,"6.51 µM [falling, partial curve]",-7.51,–
Cc1cc(S(=O)(=O)N2CCOCC2)ccc1OCC(=O)Nc1ccccc1F,–,11.5,"0.00517 µM [rising, full curve, poor fit]"
c1cc(-c2noc(CC3CCCCC3)n2)ccn1,–,-17.6,–
Cc1cccc(N=C2NC(=O)CS2)c1,–,-0.491,–
O=C(N/N=C/c1ccc2nccnc2c1)c1ccccc1O,"32.6 µM [falling, single point]",-18.7,–
Clc1cccc(CSc2nnc(-c3ccccn3)n2Cc2ccco2)c1,"18.4 µM [rising, partial curve]",108,"29.1 µM [rising, single point]"
COc1ccc(Cn2nnc(C(=O)Nc3ccc4c(c3)OCCO4)c2N)cc1Br,"29.1 µM [rising, single point]",31.9,"16.4 µM [rising, single point]"

# Three entries from above, bar-delimited:
SMILES | AC50 [1] | cell number change [%] | AC50 [2]
CCCn1nc(NC(=O)C2CCCO2)c2cc3cc(C)ccc3nc21 (stereo unspecified) | 0.517 µM [rising, full curve] | 1.44 | 0.206 µM [rising, full curve]
Cn1c(SCc2cccc(Br)c2)nc2ccccc2c1=O | 29.1 µM [falling, single point] | -22.8 | –
CC(=O)Nc1cccc(C(=O)OCC(=O)NNC(=O)c2cccs2)c1 | – | 8.5 | –

# From PubChem BioAssay AID2685 (National Center for Advancing Translational Sciences (NCATS), 2010)
